Experimental findings from paper PMC11633528 are described below.

This assay deals with T1, HCP5‐132aa N‐terminal region (1‐66aa), Flag‐tagged truncation mutant (human) (UniProt Q6MZN7).
T1 sequence: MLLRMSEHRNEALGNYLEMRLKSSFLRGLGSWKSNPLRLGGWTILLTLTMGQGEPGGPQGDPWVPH
Put plainly: co-IP; series of truncated forms of ELAVL1 with HCP5‐132aa; cells not given.

No constants are given. Whether binding was seen depends on the method and setting. In cells and extracts the contact can be indirect. A result given as binding can be weak or reduced; the word gives no strength. Where a sequence is shown, tags or fusion partners need not be part of it.

For “RRM2 domain of ELAVL1 (truncated form) (domain or fragment)”, the binding entry is “binds”.
